Data as given in patent US20190231757A1, “COMBINATION OF SPLEEN TYROSINE KINASE INHIBITORS AND OTHER THERAPEUTIC AGENTS” (Takeda Pharmaceutical Company Limited, priority 2016, published 2019).
Some of these results come from one statement about several compounds together.

Columns and labels:
[1] = Body weight and tolerability, TMD8 ABT-199/gemcitabine study (Example 9); format: in vivo, mouse; details: ABT-199 25 mg/kg; gemcitabine 5 mg/kg; single agents
Procedure: (§1) Experimental design: Female CB17 SCID mice (Taconic Biosciences; weight at treatment start was about 19 g) were inoculated subcutaneously in the flank (cell suspension) with 5.0×10^6 TMD8 cells. Tumor growth was monitored with vernier calipers. Tumor volume was calculated using the formula V=W^2×L/2, where V=volume, W=width and L=length of the tumor. When the mean tumor volume reached approximately 245 mm^3, the animals were randomized into 6 treatment groups (n=8/group). […] Tumor growth and body weight were measured twice per week. Tumor growth inhibition and body weight change were calculated on Day 14 of treatment.

[2] = Body weight and tolerability, TMD8 gemcitabine study (Example 8); format: in vivo, mouse; details: gemcitabine 5 mg/kg alone or with Compound A 60 mg/kg
Procedure: as §1, with “was” for “was about”, “215” for “245”, “into” for “into 6”

| Structure (SMILES) | maximal average body weight loss [1] | BW loss [2] |
| --- | --- | --- |
| CC1(C)CCC(CN2CCN(c3ccc(C(=O)NS(=O)(=O)c4ccc(NCC5CCOCC5)c([N+](=O)[O-])c4)c(Oc4cnc5[nH]ccc5c4)c3)CC2)=C(c2ccc(Cl)cc2)C1 [ABT-199, venetoclax] | less than 1% |  |
| Nc1ccn([C@@H]2O[C@H](CO)[C@@H](O)C2(F)F)c(=O)n1 [gemcitabine] | less than 1% | < 1% |
